Data as given in PubChem BioAssay AID1224828 (NIAID, 2016).
Assay: 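Knock-downs that increase or decrease LPS-induced p65 nuclear translocation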 (primary screen). System: mouse RAW264.7 G9 macrophage reporter cells (GFP-p65, Tnf promoter-mCherry). Reagent: siRNA pool against mouse genes, 100 nM. Time to read-out: 2 days siRNA transfection, then 40 min LPS before fixation. Conditions: LPS (Salmonella minnesota R595) at 10 ng/ml. Measured: 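Microscopy ratio of nuclear to perinuclear-ring GFP-p65 signal, scaled to the plate median; gene score is the average of two replicate robust z-scores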. Reading the numbers: p65 translocation robust z-score: higher = more nuclear NF-kappaB p65 after LPS than the plate median; nuclear/cytoplasmic p65 ratio: higher = more nuclear NF-kappaB p65. Active means: 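Called active when z exceeds 3.3 or falls under -1.56 (median of Tlr4 controls), giving activity score of at least 50; no calls for control wells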. Calls: active = hit (p65 shift raised or lowered); inactive = no clear change.
In all, the deposit lists about 17,000 reagents; this is a random part of them. Over the whole deposit, 762 (4.5%) got an active call. 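Active calls include both raised and lowered p65 entry, mostly lowered; wells with fewer than 50 cells lack a z-score.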 Raw values vary from plate to plate and are shown uncorrected. The numbers tell different reagents against one gene apart.

gene | pool no. | p65 translocation robust z-score | nuclear/cytoplasmic p65 ratio, rep 1 | nuclear/cytoplasmic p65 ratio, rep 2 | low cell count flag | Call
Epcip (exosomal polycystin 1 interacting protein) | 1 | – | 1.14 | 1.12 | fewer than 50 cells per well; well left out of scoring | inactive
Man2b1 (mannosidase 2, alpha B1) | 1 | -0.38 | 1.23 | 1.3 | enough cells to score | inactive
Cacna2d1 (calcium channel, voltage-dependent, alpha2/delta subunit 1) | 1 | 0.02 | 1.61 | 1.63 | enough cells to score | inactive
Nipbl (NIPBL cohesin loading factor) | 1 | 0.06 | 1.29 | 1.42 | enough cells to score | inactive
Nipbl (NIPBL cohesin loading factor) | 2 | 0.63 | 1.44 | 1.6 | enough cells to score | inactive
Or8k1 (olfactory receptor family 8 subfamily K member 1) | 1 | 1.09 | 1.84 | 1.73 | enough cells to score | inactive
Golga7 (golgin A7) | 1 | -0.46 | 1.4 | 1.64 | enough cells to score | inactive
Dennd1b (DENN domain containing 1B) | 1 | – | 1.36 | 1.27 | fewer than 50 cells per well; well left out of scoring | inactive
Omg (oligodendrocyte myelin glycoprotein) | 1 | -0.02 | 1.43 | 1.25 | enough cells to score | inactive
Tnfsf18 (tumor necrosis factor (ligand) superfamily, member 18) | 1 | -0.55 | 1.48 | 1.4 | enough cells to score | inactive
Dcun1d5 (defective in cullin neddylation 1 domain containing 5) | 1 | – | 1.21 | 1.2 | fewer than 50 cells per well; well left out of scoring | inactive
Lrrc7 (leucine rich repeat containing 7) | 1 | -0.25 | 1.5 | 1.66 | enough cells to score | inactive
Fdps (farnesyl diphosphate synthetase) | 1 | -2.08 | 1.09 | 1.2 | enough cells to score | active
Dhx36 (DEAH-box helicase 36) | 1 | 1.96 | 1.92 | 1.77 | enough cells to score | inactive
Pml (promyelocytic leukemia) | 1 | – | 1.16 | 1.14 | fewer than 50 cells per well; well left out of scoring | inactive
Cytip (cytohesin 1 interacting protein) | 1 | -1.37 | 1.17 | 1.09 | enough cells to score | inactive
Tekt2 (tektin 2) | 1 | 1.18 | 1.48 | 1.35 | enough cells to score | inactive
Zfhx4 (zinc finger homeodomain 4) | 1 | – | 1.56 | 1.29 | fewer than 50 cells per well; well left out of scoring | inactive
Rabggta (Rab geranylgeranyl transferase, a subunit) | 1 | -0.38 | 1.51 | 1.42 | enough cells to score | inactive
Pcdha9 (protocadherin alpha 9) | 1 | -0.87 | 1.3 | 1.17 | enough cells to score | inactive
Nfu1 (NFU1 iron-sulfur cluster scaffold) | 1 | 2.01 | 1.99 | 1.79 | enough cells to score | inactive
Cubn (cubilin) | 1 | 0.71 | 1.54 | 1.45 | enough cells to score | inactive
Smpd3 (sphingomyelin phosphodiesterase 3, neutral) | 1 | 1.01 | 1.7 | 1.69 | enough cells to score | inactive
Ggh (gamma-glutamyl hydrolase) | 1 | 0.8 | 1.55 | 1.46 | enough cells to score | inactive
1700129C05Rik (RIKEN cDNA 1700129C05 gene) | 1 | – | 1.28 | 1.89 | fewer than 50 cells per well; well left out of scoring | inactive
Cklf (chemokine-like factor) | 1 | 0.34 | 1.61 | 1.71 | enough cells to score | inactive
Muc5b (mucin 5, subtype B, tracheobronchial) | 1 | 0.42 | 1.84 | 1.66 | enough cells to score | inactive
Gja4 (gap junction protein, alpha 4) | 1 | -0.07 | 1.46 | 1.33 | enough cells to score | inactive
Spats2l (spermatogenesis associated, serine-rich 2-like) | 1 | 1.01 | 1.56 | 1.57 | enough cells to score | inactive
Taar2 (trace amine-associated receptor 2) | 1 | -0.02 | 1.5 | 1.59 | enough cells to score | inactive
Dusp13b (dual specificity phosphatase 13B) | 1 | -1.67 | 1.26 | 1.16 | enough cells to score | active
Or8g34 (olfactory receptor family 8 subfamily G member 34) | 1 | 0.65 | 1.52 | 1.33 | enough cells to score | inactive
Ctr9 (CTR9 homolog, Paf1/RNA polymerase II complex component) | 1 | 0.51 | 1.45 | 1.32 | enough cells to score | inactive
Lgals7 (lectin, galactose binding, soluble 7) | 1 | 0.89 | 1.87 | 1.66 | enough cells to score | inactive
Thoc3 (THO complex 3) | 1 | -1.32 | 1.13 | 1.1 | enough cells to score | inactive
Trpm2 | 1 | -1.39 | 1.38 | 1.24 | enough cells to score | inactive
Psap (prosaposin) | 1 | 1.15 | 1.61 | 1.6 | enough cells to score | inactive
Cacnb4 (calcium channel, voltage-dependent, beta 4 subunit) | 1 | 1.42 | 1.73 | 1.92 | enough cells to score | inactive
Nek1 (NIMA (never in mitosis gene a)-related expressed kinase 1) | 1 | 0.19 | 1.65 | 1.45 | enough cells to score | inactive
Cpne5 (copine V) | 1 | 0.81 | 1.64 | 1.44 | enough cells to score | inactive
Rprd1b (regulation of nuclear pre-mRNA domain containing 1B) | 1 | -1.25 | 1.2 | 1.33 | enough cells to score | inactive
Or4f56 (olfactory receptor family 4 subfamily F member 56) | 1 | 0.49 | 1.69 | 1.48 | enough cells to score | inactive
Rpn2 (ribophorin II) | 1 | – | 1.59 | 1.1 | fewer than 50 cells per well; well left out of scoring | inactive
Recql (RecQ protein-like) | 1 | -0.15 | 1.52 | 1.47 | enough cells to score | inactive
Rassf8 | 1 | -1.31 | 1.16 | 1.32 | enough cells to score | inactive
Pole2 (polymerase (DNA directed), epsilon 2 (p59 subunit)) | 1 | 0.36 | 1.43 | 1.25 | enough cells to score | inactive
Abhd11 (abhydrolase domain containing 11) | 1 | 0.11 | 1.56 | 1.59 | enough cells to score | inactive
Mapk13 (mitogen-activated protein kinase 13) | 1 | 0.36 | 1.84 | 1.42 | enough cells to score | inactive
B230219D22Rik (RIKEN cDNA B230219D22 gene) | 1 | 2.48 | 1.98 | 1.85 | enough cells to score | inactive
Nmral1 (NmrA-like family domain containing 1) | 1 | 0.91 | 1.67 | 1.57 | enough cells to score | inactive
Il13ra1 (interleukin 13 receptor, alpha 1) | 1 | -0.58 | 1.35 | 1.31 | enough cells to score | inactive
Rint1 (RAD50 interactor 1) | 1 | – | 1.45 | 1.19 | fewer than 50 cells per well; well left out of scoring | inactive
H4c8 (H4 clustered histone 8) | 1 | -0.06 | 1.47 | 1.49 | enough cells to score | inactive
Acvrl1 (activin A receptor, type II-like 1) | 1 | – | 1.47 | 1.22 | fewer than 50 cells per well; well left out of scoring | inactive
1810043J12RIK | 1 | – | 1.73 | 1.14 | fewer than 50 cells per well; well left out of scoring | inactive
Scp2d1 (SCP2 sterol-binding domain containing 1) | 1 | 0.51 | 1.46 | 1.56 | enough cells to score | inactive
S100a8 (S100 calcium binding protein A8 (calgranulin A)) | 1 | -0.6 | 1.86 | 1.15 | enough cells to score | inactive
Snx1 (sorting nexin 1) | 1 | – | 1.48 | 0.964 | fewer than 50 cells per well; well left out of scoring | inactive
Zfp607b (zinc finger protein 607B) | 1 | 0 | 1.35 | 1.52 | enough cells to score | inactive
